The supplement of paper PMC8728848
The other results are listed elsewhere or left out.

How the values were obtained:
Assay in all cases: glycan array binding signal (z-score within array); higher = stronger binding
Details in all cases: glycan notation: IUPAC condensed, linker removed
Glc(b1-6)Glc = molecular target: Glc(b1-6)Glc
How it was run: (§1)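 Glycan array data came from 3228 arrays in the Consortium for Functional Glycomics database, and only arrays with an available protein sequence were kept. Glycan names were put into IUPAC-condensed notation, and columns mapping to the same glycan were averaged. The binding signal is a within-array Z-score, averaged across arrays of one protein sequence run at different concentrations or buffers and across linkers. A negative Z-score can be read as non-binding.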

GlcA(b1-3)Gal = molecular target: GlcA(b1-3)Gal
How it was run: as §1

GlcA(b1-3)GlcNAc = molecular target: GlcA(b1-3)GlcNAc
How it was run: as §1

GlcA(b1-6)Gal = molecular target: GlcA(b1-6)Gal
How it was run: as §1

[1] = molecular target: GlcA3S(b1-3)Gal(b1-4)GlcNAc(b1-2)Man
How it was run: as §1

[2] = molecular target: GlcA3S(b1-3)Gal(b1-4)GlcNAc(b1-3)Gal(b1-4)Glc
How it was run: as §1

[3] = molecular target: GlcNAc(a1-3)Gal(b1-4)GlcNAc
How it was run: as §1

[4] = molecular target: GlcNAc(a1-4)Gal(b1-3)GlcNAc
How it was run: as §1

[5] = molecular target: GlcNAc(a1-4)Gal(b1-4)GalNAc
How it was run: as §1

[6] = molecular target: GlcNAc(a1-4)Gal(b1-4)GlcNAc
How it was run: as §1

[7] = molecular target: GlcNAc(a1-4)Gal(b1-4)GlcNAc(b1-3)Gal(b1-4)Glc
How it was run: as §1

[8] = molecular target: GlcNAc(a1-4)Gal(b1-4)GlcNAc(b1-3)Gal(b1-4)GlcNAc
How it was run: as §1

[9] = molecular target: GlcNAc(a1-4)Gal(b1-4)GlcNAc(b1-3)Gal(b1-4)GlcNAc(b1-3)Gal(b1-4)GlcNAc
How it was run: as §1

[10] = molecular target: GlcNAc(a1-4)Gal(b1-4)GlcNAc(b1-3)Gal(b1-4)[Fuc(a1-3)]GlcNAc(b1-3)Gal(b1-4)[Fuc(a1-3)]GlcNAc
How it was run: as §1

[11] = molecular target: GlcNAc(a1-6)Gal(b1-4)GlcNAc
How it was run: as §1

[12] = molecular target: GlcNAc(b1-2)Gal(b1-3)GalNAc
How it was run: as §1

[13] = molecular target: GlcNAc(b1-2)Man(a1-3)[GlcNAc(b1-2)Man(a1-6)]Man(b1-4)GlcNAc(b1-4)GlcNAc
How it was run: as §1

[14] = molecular target: GlcNAc(b1-2)Man(a1-3)[GlcNAc(b1-2)Man(a1-6)]Man(b1-4)GlcNAc(b1-4)[Fuc(a1-6)]GlcNAc
How it was run: as §1

[15] = molecular target: GlcNAc(b1-2)Man(a1-3)[GlcNAc(b1-4)][GlcNAc(b1-2)Man(a1-6)]Man(b1-4)GlcNAc(b1-4)GlcNAc
How it was run: as §1

[16] = molecular target: GlcNAc(b1-2)Man(a1-3)[GlcNAc(b1-4)][GlcNAc(b1-2)Man(a1-6)]Man(b1-4)GlcNAc(b1-4)[Fuc(a1-6)]GlcNAc
How it was run: as §1

[17] = molecular target: GlcNAc(b1-2)[GlcNAc(b1-4)]Man(a1-3)[GlcNAc(b1-2)Man(a1-6)]Man(b1-4)GlcNAc(b1-4)GlcNAc
How it was run: as §1

[18] = molecular target: GlcNAc(b1-2)[GlcNAc(b1-4)]Man(a1-3)[GlcNAc(b1-4)][GlcNAc(b1-2)Man(a1-6)]Man(b1-4)GlcNAc(b1-4)GlcNAc
How it was run: as §1

B1: Awp3 (Candida glabrata), B4UN32 (protein)
chain: MISFVTLLAILGLLSISWADQTVRSVAGDQRVTDPVIVGDNSILDYYGGSNYDFSNNFEIGRGTLYIGKESYFSSFQSAPTDVPNSFHLLIKNTNNLQNNGQFIIENIKRHANQCSNSSIQVFPINFQNDGEFEIISGGVEGRCCLPTSVIAPQNFLNNGKFYYKVLTDTGSIYSGSCMQNVDIGASTTTTVNNNLWEFTGSINAQINGAVSGAAQINLDGSNMFVNANTFSGQVVNLINGGSFLQTSDPLSNIVVINGLGTSDTGVTSIAVKGKGKSFTYNPSSGIVKLTTVEGKTYAYQIGCGYNTKKFITNNDSGASYESADNFFVLTYSEPYSPQTCQLENSSIFSSNFISTSTSSSSSSSSASSLPSSMSSSLPSSLSSSLSSSLSSSMSSSMSSLFIIPPPYTTTRSSGSSIIDTEIVSFYSTTDSPGHTITGTTTTTLYGPHTHSSVSTPSSSSESSTTSNSSIESSSLPHTSVSSTPESSITPSSNTISSSPTSDFSSVQSSSIMESSSVVASSSVINSSSIVDSSSSSASSLPSSMSSSLSSSMSSSLPSSMSSSLSSSLSSSLSSSMSSSMSSLFIIPPPYTTTRSSGSSIIDTEIVSFYSTTDSPGHTITGTTTTTLYGPHTHSSVSTPSSSSESSTTSNSSIESSSLPHTSVSSTPESSITPSSNTISSSPTSDFSSVQSSSIMESSSVVASSSVINSSSIVDSSSSSASSLPSSMPSSLPSSMSSSLSSSMSSSLSSSLSSSLSSSMSSSMSSLFIIPPPYTTTRSSGSSIIDTEIVSFYSTTDSPGHTITGTTTTTLYGPHTHSSVSTPSSSSESSTTSNSSIESSSLPHTSVSSTPESSITPSSNTISSSPTSDFSSVQSSSIMESSSVVASSSATQSSSVINSSSIVDSSSSSASSLPSSMPSSLPSSLSSSLSSSLSSSMSSSMSSLFIIPPPYTTTRSSGSSIIDTEIVSFYSTTDSPGHTITGTTTTTLYESSIYSSSSSTIQESELSNTSRTTMTSNSSVSISSTSSRSSFSNTKSSTIVISQSASLPDSKTDIILSTSSNIGYSSRSLLSDLGTSISDSDIHHSVLHSTESYSSNESGTNPFTSIASLSNFIPESSSHTSTALGSENSVISSDILTTMSHPVATNSGDKPTTPKRSEQVSTTMTSSGPTPDTSSFDTDGMSAYSRPEFTTNSLEVNKSSTSQLGNNKQTFSNLQLESTRPHSENEVDNNTRLLQSIQQSSTYGTNNVNPLSPTGSISIPLTEDGQGDNNNWNSPATNDLCTQISFNLTATTITVTDRITITDSIHDISSEVITSYIYQTIVDQKTVTQTVDGKSLANKMSSIPKPSSRSLIQPQPPVAIELQEGAASTSRVSLVSLFISIILVLL
With B1 the “glycan array binding signal (z-score)” value (Glc(b1-6)Glc) was -1.17, the “glycan array binding signal (z-score)” value (GlcA(b1-3)Gal) was 0.694 and the “glycan array binding signal (z-score)” value (GlcA(b1-3)GlcNAc) was 0.147. The “glycan array binding signal (z-score)” value (GlcA(b1-6)Gal) was -0.166, the “glycan array binding signal (z-score)” value [1] was 0.092 and the “glycan array binding signal (z-score)” value [2] was 1.22. For the same binder, the “glycan array binding signal (z-score)” value [3] was -1.5, the “glycan array binding signal (z-score)” value [4] was -1.28 and the “glycan array binding signal (z-score)” value [5] was -0.677. The “glycan array binding signal (z-score)” value [6] was 0.255, the “glycan array binding signal (z-score)” value [7] was -0.466 and the “glycan array binding signal (z-score)” value [8] was -0.221. For the same binder, the “glycan array binding signal (z-score)” value [9] was -0.678, the “glycan array binding signal (z-score)” value [10] was -0.632 and the “glycan array binding signal (z-score)” value [11] was -0.59. The “glycan array binding signal (z-score)” value [12] was 0.916, the “glycan array binding signal (z-score)” value [13] was -1.14 and the “glycan array binding signal (z-score)” value [14] was -0.385. The “glycan array binding signal (z-score)” value [15] was -0.811, the “glycan array binding signal (z-score)” value [16] was -0.106 and the “glycan array binding signal (z-score)” value [17] was 0.257. For the same binder, the “glycan array binding signal (z-score)” value [18] was -1.57.
